Laboratory results: PubChem BioAssay AID1259254 (NCATS, 2017)
Screen: 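Finding genes that stop cells copying their DNA twice in one cycle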 (primary screen). System: human HCT116 colorectal cancer cells. Knock-down reagent: single siRNA against human genes. Time to read-out: 3 days. Detection: 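Imaged Hoechst DNA stain sorts each cell into a cycle phase by DNA amount; per plate, G2 fraction set to 0% for non-targeting and 100% for GMNN siRNA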. Reading the numbers: G2 robust z-score and G2 cells, % of GMNN control: higher = more G2 cells, more excess DNA replication; raw share of cells in G2: higher = larger share of cells with G2 DNA content. Call rule: 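Active siRNAs have a G2 robust z of 5 or more median absolute deviations over the median, which in these data means about 38% or higher of GMNN control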.
This is an unselected part of about 59,000 reagents. About 1,550 of all reagents (2.6%) count as active. 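G2 share is only a proxy for re-replication; each gene was hit by three separate siRNAs, and active genes were retested.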 Raw values vary from plate to plate and are shown uncorrected. Unmarked entries are inactive. Reagents against one gene are numbered here. Not given: the amount of reagent.

target	reagent	G2 robust z-score	G2 cells, % of GMNN control	raw share of cells in G2 (%)
CAMKK1	1	0.261	4.8	7.08
CAMKK1	2	-0.00231	2.95	6.26
CAMKK1	3	2.52	20.7	10.3
OLIG2	1	-0.132	2.04	6.58
OLIG2	2	-0.189	1.64	4.37
OLIG2	3	-0.644	-1.56	5.86
CCT5	1	-0.0942	2.3	4.29
CCT5	2	0.969	9.78	10.3
CCT5	3	2.23	18.7	11.2
SRCAP-AS1	1	0.553	6.85	6.07
SRCAP-AS1	2	0.23	4.59	5.47
SRCAP-AS1	3	1.69	14.8	9.61
KCNH6	1	1.13	10.9	9.26
KCNH6	2	3.33	26.4	13.7
KCNH6	3	-0.22	1.42	4.93
ZNF501	1	1.86	16.1	8.62
ZNF501	2	0.152	4.04	4.57
ZNF501	3	0.917	9.42	6.83
GLRB	1	1.28	12	9.64
GLRB	2	-0.478	-0.396	4.65
GLRB	3	0.573	7	7.11
CYTH3	1	1.3	12.1	9.05
CYTH3	2	-1.29	-6.08	3.13
CYTH3	3	-0.849	-3	3.17
LRCOL1	1	0.654	7.57	6.52
LRCOL1	2	1.17	11.2	7.3
LRCOL1	3	0.599	7.18	5.24
TMEM161BP1	1	0.507	6.54	5.12
TMEM161BP1	2	0.708	7.95	6.78
TMEM161BP1	3	0.029	3.17	4.4
MPIG6B	1	-0.0904	2.33	5.41
MPIG6B	2	0.789	8.52	8.03
MPIG6B	3	0.834	8.84	4.79
NUP62CL	1	-1.15	-5.1	1.78
NUP62CL	2	1.79	15.6	10.8
NUP62CL	3	-0.749	-2.31	2.43
PSMD3	1	4.4	33.9	15.4
PSMD3	2	1.14	11	8.86
PSMD3	3	2.62	21.4	12.3
PLEKHG4	1	-0.136	2.01	5.17
PLEKHG4	2	1.38	12.7	9.43
PLEKHG4	3	0.836	8.85	6.39
LCE2B	1	-0.945	-3.68	2.01
LCE2B	2	3.43	27.1	14.6
LCE2B	3	1.78	15.5	10.6
ETV4	1	0.0752	3.5	4.85
ETV4	2	0.331	5.29	7.33
ETV4	3	0.449	6.13	5.33
ARIH1	1	-0.843	-2.96	3.02
ARIH1	2	11 (active)	80.5	42.7
ARIH1	3	-0.122	2.11	4.89

Part of the list above, showing only “raw share of cells in G2 (%)”.
CYTH3 #3 = 3.17
LRCOL1 #1 = 6.52
LRCOL1 #2 = 7.3
LRCOL1 #3 = 5.24
TMEM161BP1 #1 = 5.12
TMEM161BP1 #2 = 6.78
TMEM161BP1 #3 = 4.4
MPIG6B #1 = 5.41

Additional reagents:
target	reagent	G2 robust z-score	G2 cells, % of GMNN control	raw share of cells in G2 (%)
METTL15	1	0.517	6.6	5.97
METTL15	2	-0.237	1.3	3.4
METTL15	3	-0.186	1.66	3.29
LACTB2	1	0.78	8.46	7.08
LACTB2	2	0.991	9.94	8.31
LACTB2	3	5.03 (active)	38.3	15.3
SAMD14	1	-0.485	-0.443	3.44
SAMD14	2	0.262	4.81	4.57
SAMD14	3	-0.155	1.88	3.36
LYSMD1	1	-0.397	0.174	4.71
LYSMD1	2	1.84	15.9	9.22
LYSMD1	3	-0.403	0.134	3.46
GAB1	1	0.649	7.53	7.97
GAB1	2	-0.268	1.08	5.68
GAB1	3	0.641	7.48	6.32
ATF6B	1	1.63	14.4	9.07
ATF6B	2	-0.0463	2.64	5.96
ATF6B	3	-0.522	-0.708	4.71
NCF4	1	0.503	6.5	7.74
NCF4	2	1.09	10.6	8.43
NCF4	3	4.82	36.9	16.7
CTNNA1	1	1.75	15.3	10.4
CTNNA1	2	-0.103	2.24	5.81
CTNNA1	3	0.221	4.52	5.65
ERMN	1	-0.523	-0.712	4.07
ERMN	2	0.795	8.56	8.55
ERMN	3	0.306	5.12	4.65
CCNYL3	1	1.75	15.3	9.53
CCNYL3	2	-0.159	1.85	4.12
CCNYL3	3	1.1	10.7	6.77
ATP11B	1	0.363	5.52	5.76
ATP11B	2	-1.39	-6.82	3.63
ATP11B	3	-1.38	-6.77	1.89
GABRA5	1	0.202	4.39	6.89
GABRA5	2	-0.773	-2.47	3.95
GABRA5	3	-0.643	-1.56	3.77
